This is an account of results in article PMC4850634, “Characterization of an A-kinase anchoring protein-like suggests an alternative way of PKA anchoring in Plasmodium falciparum” (Malaria Journal, 2016).

Sequences of proteins named here, by UniProt entry; tags and fusion partners are left off. A change or cut given only in a name is not applied to a line headed by its entry.
UniProt Q8I3X8: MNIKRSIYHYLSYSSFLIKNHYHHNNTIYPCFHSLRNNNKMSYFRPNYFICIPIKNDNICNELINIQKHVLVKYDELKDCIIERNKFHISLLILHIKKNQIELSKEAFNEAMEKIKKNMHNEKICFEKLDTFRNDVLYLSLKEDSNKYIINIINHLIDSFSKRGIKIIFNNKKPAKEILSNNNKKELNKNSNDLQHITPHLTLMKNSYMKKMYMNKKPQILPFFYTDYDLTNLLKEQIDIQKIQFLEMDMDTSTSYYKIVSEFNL

This experiment has as its target GST-PfAKAL (P. falciparum A Kinase anchoring protein-like fused to GST) (Plasmodium falciparum) (UniProt Q8I3X8). The experiment can be described thus: affinity purification with mass spectrometry; GST-PfAKAL beads incubated with P. falciparum 3D7 extracts in RIPA buffer, 4 °C, 90 min (100 µg of total parasite proteins for 10 µg of recombinant protein on beads); washes in RIPA and RIPA with 0.1 % SDS; nLC-MSMS; only the target purified.

These are yes or no findings as the source states them, for the method shown. Binding seen in cells or lysates may run through a third protein. Here binding means that the protein was enriched with, or labelled near, the bait; the list need not be complete.

B1: Pf14-3-3I, native, in P. falciparum 3D7 parasite protein extracts (protein, UniProt C0H4V6 1-262)
chain: MATSEELKQLRCDCTYRSKLAEQAERYDEMADAMRTLVEQCVNNDKDELTVEERNLLSVAYKNAVGARRASWRIISSVEQKEMSKANVHNKNVAATYRKKVEEELNNICQDILNLLTKKLIPNTSESESKVFYYKMKGDYYRYISEFSCDEGKKEASNCAQEAYQKATDIAENELPSTHPIRLGLALNYSVFFYEILNQPHQACEMAKRAFDDAITEFDNVSEDSYKDSTLIMQLLRDNLTLWTSDLQGDQTEEKSKDEGLE
On to B1, for which the binding result was “binds”.
